These are literature values, as cited in publication PMC11359394 (Pharmaceutics, 2024).

`CC(=O)O[C@H]1C(=O)[C@@]2(C)[C@H]([C@H](OC(=O)c3ccccc3)[C@]3(O)C[C@H](OC(=O)[C@H](O)[C@@H](NC(=O)c4ccccc4)c4ccccc4)C(C)=C1C3(C)C)[C@]1(OC(C)=O)CO[C@@H]1C[C@@H]2O` [Paclitaxel]: the “intrinsic solubility in water” value is 0.1 µg/mL.
